Some entries share one result that the patent states for a list of compounds. At least one compound was matched to its structure with a doubt left.
Assay: Pharmacokinetics in rats: TRF and PRF in ocular tissues by LC-MS/MS after suprachoroidal PLGA-ACF MPs
Details: suprachoroidal PLGA-ACF MPs containing 10 μg ACF

C[n+]1c2cc(N)ccc2cc2ccc(N)cc21.[Cl-] [TRF, trypaflavine]
drop in tissue levels between 1 and 2 weeks: ≥ 10 fold
steady-state level in inferior RPE/choroid (2 through 16 weeks): 0.5 to 1 nM
steady-state level in superior RPE/choroid (2 through 16 weeks): 2 to 8 nM
steady-state level in superior retina (2 through 16 weeks): 0.5 to 1 nM
tissue level at 1 week after injection (superior and inferior half of retina and RPE/choroid): above 10 nM

Reference: patent publication US20230081539A1, “SUPRACHOROIDAL DELIVERY OF DRUG PARTICLES TO REDUCE TOXICITY” (The Johns Hopkins University, priority 2020, published 2023)
